Test results taken from patent US7358040B2, “MRE 11: modulation of cellular proliferation” (Rigel Pharmaceuticals, Incorporated, priority 2001, dated 2008).
No constants are given. Whether binding was seen depends on the method and setting. Some binding calls cover weakened binding; strength is not graded here.

The chains behind the UniProt entries cited, without tags or fusion partners.
UniProt P12004: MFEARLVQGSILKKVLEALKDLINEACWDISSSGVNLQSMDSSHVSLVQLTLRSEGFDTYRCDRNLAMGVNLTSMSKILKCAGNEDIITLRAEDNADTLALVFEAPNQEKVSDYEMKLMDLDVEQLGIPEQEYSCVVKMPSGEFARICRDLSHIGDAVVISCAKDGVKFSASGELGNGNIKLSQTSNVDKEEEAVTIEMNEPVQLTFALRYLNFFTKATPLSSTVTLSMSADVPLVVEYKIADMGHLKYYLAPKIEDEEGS
UniProt O60934: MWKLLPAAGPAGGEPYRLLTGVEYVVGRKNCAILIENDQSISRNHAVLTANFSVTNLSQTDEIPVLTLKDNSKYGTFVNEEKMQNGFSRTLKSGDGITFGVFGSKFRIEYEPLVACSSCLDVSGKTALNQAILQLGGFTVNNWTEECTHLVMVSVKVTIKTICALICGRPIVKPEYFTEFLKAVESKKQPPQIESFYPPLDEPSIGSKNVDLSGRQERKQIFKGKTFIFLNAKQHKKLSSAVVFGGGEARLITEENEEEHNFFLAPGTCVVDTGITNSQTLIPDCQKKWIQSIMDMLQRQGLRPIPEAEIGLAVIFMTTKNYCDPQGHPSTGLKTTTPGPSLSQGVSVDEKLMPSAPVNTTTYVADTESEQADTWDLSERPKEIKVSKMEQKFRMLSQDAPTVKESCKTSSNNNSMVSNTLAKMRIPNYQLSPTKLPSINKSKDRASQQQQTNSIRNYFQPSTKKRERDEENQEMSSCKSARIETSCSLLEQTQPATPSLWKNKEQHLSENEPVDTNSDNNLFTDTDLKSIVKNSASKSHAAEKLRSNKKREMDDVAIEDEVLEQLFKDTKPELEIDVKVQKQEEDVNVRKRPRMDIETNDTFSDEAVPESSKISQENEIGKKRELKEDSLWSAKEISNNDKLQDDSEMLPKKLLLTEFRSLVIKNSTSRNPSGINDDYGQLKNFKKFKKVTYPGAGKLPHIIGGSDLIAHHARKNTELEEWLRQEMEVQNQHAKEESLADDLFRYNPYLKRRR

Target: PCNA (UniProt P12004)
Experiment: yeast two hybrid assay, PCNA as bait

binding: binds
Substance: NBS1 (from UniProt O60934 1-754)
